# Several values for one entry are separate records, joined by “and”; a condition that tells them apart may be missing. Equal entries are not always repeated. The list shows a part of the results. Shown are side measurements of this screen, not its main read-out; they come without a call. Most of these compounds were active or inconclusive in the main read-out, so they are no random draw. Words in brackets tell the shape of the fitted curve; partial curves, single points and poor fits give uncertain potencies.
# Test: qHTS Assay to Find Inhibitors of Chronic Active B-Cell Receptor Signaling
# Settings: ABC-DLBCL IkBa-CBG/CBR reporter, luminescence ratio (green luciferase fused to IkBa over red control in TMD8 lymphoma cells), 4 h
# Outline: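 Doxycycline induced both beetle luciferases in TMD8 lymphoma cells; IKK-driven degradation limits the IkappaBalpha-fused green signal, while red luminescence normalises for cell number and nonspecific effects. Compounds tested up to 46 uM, 4 hrs.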
# [1] = measured here: CBR red luminescence, cell number
# [2] = measured here: IkBa-CBG green luminescence
Compound,AC50 [1],AC50 [2]
Fc1ccc2[nH]c3c(N4CCc5ccccc5C4)ncnc3c2c1,"11.2 µM [falling, partial curve, poor fit]","12.6 µM [rising, single point]"
CCC(=O)c1ccc(OCc2ccc(C#N)cc2)cc1,"6.31 µM [rising, full curve]",
COc1ccc(NC(=O)CCCN2C(=O)/C(=C\c3ccco3)SC2=S)cc1,"29.1 µM [falling, partial curve, poor fit]",
COc1ccc(NC(=O)c2cc([N+](=O)[O-])ccc2N2CCN(C)CC2)cc1,"15.8 µM [falling, partial curve, poor fit]",
CC(=O)NC(c1ccco1)c1cc(F)c2cccnc2c1O (stereo not given),"11.6 µM [falling, partial curve] and 25.9 µM [falling, single point]",
Cc1ccnc2nc(C(=O)Nc3nnc(CC(C)C)s3)nn12,"20.6 µM [falling, single point]",
COc1ccccc1-c1sc2ccccc2c1-c1ccc(OCCN2CCCCC2)cc1,"16.4 µM [falling, partial curve, poor fit]",
O=C(O)c1cccc(NC(=S)NC(NC(=O)c2ccco2)C(Cl)(Cl)Cl)c1 (stereo not given),"35.5 µM [rising, single point]",
CS(=O)(=O)c1ccc2nc(NC(=O)c3ccccc3Cl)sc2c1,"11.2 µM [falling, partial curve]",
COc1ccc(/C=N/NC2=NCCCCC2)c(OC)c1,"10 µM [falling, partial curve, poor fit]",
COc1ccc(NC(=O)C2CCC(CNS(=O)(=O)c3csc(C(N)=O)c3)CC2)cc1OC (stereo not given),"35.5 µM [rising, single point]",
O=C(Nc1nc2c(Cl)cccc2s1)c1ccc([N+](=O)[O-])o1,"2.82 µM [falling, full curve, poor fit]",
c1cc2c(cc1-c1csc(NNC3=NCCCCC3)n1)OCCO2,"35.5 µM [falling, single point]",
O=C(c1cc(COc2ccc(F)cc2Cl)on1)N(CCO)Cc1cccs1,"35.5 µM [falling, single point]",
O=c1[nH]c(SCc2ccccc2)nc2ccsc12,"35.5 µM [falling, single point]",
O=c1oc2ccccc2c(NC2CCCCC2)c1NS(=O)(=O)c1ccc(F)c(Cl)c1,"15.8 µM [falling, single point]",
O=C(NN=C1CCC(=NNC(=O)c2cccnc2)CC1)c1cccnc1,"2.51 µM [falling, full curve]",
S=c1[nH]nc(-c2cc(-c3ccccc3)n[nH]2)n1/N=C/c1ccc(Cl)c(Cl)c1,"7.08 µM [rising, full curve, poor fit]",
O=C(Nc1sc2c(c1C(=O)O)CCCCC2)c1cccnc1,"0.708 µM [falling, full curve, poor fit]",
O=C1CN(C(=O)c2cccc(Br)c2)C(c2ccccc2)c2cc(Cl)ccc2N1 (stereo not given),"11.2 µM [falling, partial curve, poor fit]",
Cc1[nH]c(-c2ccccn2)nc(=S)c1Cl,"35.5 µM [rising, single point]",

Compound,AC50 [1],AC50 [2]
COc1ccc(CN(C)S(=O)(=O)c2nnc(NC(=O)c3ccccc3OC)s2)cc1OC,"12.6 µM [rising, single point]",
COc1ccc(/C=C(/NC(=O)c2ccccc2)C(=O)N2CCCCC2)cc1OC,"5.62 µM [rising, single point]",
CCOC(=S)SCC(=O)Nc1nc(C)c(C)s1,"2.82 µM [falling, full curve]","10 µM [rising, partial curve, poor fit]"
Cc1ccc(NC(=O)CCC(=O)NNC(=O)Cc2ccccc2)cc1C,"35.5 µM [rising, single point]",
Cc1cccc(NC(=O)Nc2cnccn2)c1,"35.5 µM [falling, single point]",
CC(=O)COc1ccc2c(c1C)O/C(=C\c1ccco1)C2=O,"0.282 µM [rising, full curve]",
Cc1nnc(Oc2ccccc2)c2ccccc12,"1.12 µM [rising, full curve, poor fit]",
COCCN(CC(=O)Nc1cccc(C)c1C)C(=O)c1cc(S(=O)(=O)N2CCCC2)ccc1C,"25.9 µM [rising, partial curve, poor fit]",
COC(=O)c1cccc(NC(=O)CSc2nnc(COc3ccc(C#N)cc3)n2-c2ccccc2)c1,"2.91 µM [falling, full curve, poor fit]",
COc1ccc(N(Cc2cc(=O)[nH]c3ccccc23)C(=O)CCl)cc1,"17.8 µM [falling, partial curve]",
Cc1c(C(=O)N2CCC(C)CC2)oc2ccc(S(=O)(=O)N3CCC4(CC3)OCCO4)cc12,"11.6 µM [falling, partial curve, poor fit]",
CCS(=O)(=O)c1ccc2oc(Nc3cc(C)cc(C)c3)nc2c1,"1.58 µM [rising, full curve]",
COc1ccccc1NC(=O)C(C)N1CCN(C/C=C/c2ccccc2)CC1 (stereo not given),"15.8 µM [falling, single point]",
Brc1ccc(-c2csc(N/N=C/c3cccnc3)n2)cc1,"0.112 µM [rising, full curve, poor fit]",
O=C(CCC(=O)N1CCN(S(=O)(=O)c2ccccc2Cl)CC1)c1ccccc1,"11.6 µM [rising, single point]",
Cc1cc(NC(=O)c2cccnc2)ccc1NC(=O)c1cc2ccccc2o1,"35.5 µM [falling, single point]",
COc1ccc(C(=O)Nc2cnc3sc(C)nn3c2=O)cc1,"35.5 µM [falling, single point]",
CCCC(=O)Nc1cccc(-c2nc3ccccc3o2)c1,"20.6 µM [rising, single point]",
COC(=O)c1ccc2c(c1)c(C#Cc1ccccc1)c(-c1ccccc1)n2C,"3.66 µM [rising, partial curve]",
O=C(NC(=S)Nc1ccc(Cc2ccncc2)cc1)c1ccccc1,"20.6 µM [falling, partial curve, poor fit]",
CC1(C)Oc2ccc(C(=O)N3CCc4ccccc43)cc2N(CC(=O)N2CCCC2)C1=O,"7.08 µM [rising, full curve, poor fit]",

Compound,AC50 [1],AC50 [2]
O=c1[nH]c(/C=C/c2ccccc2[N+](=O)[O-])nc2ccccc12,"7.31 µM [falling, partial curve, poor fit]",
COCCNC(=O)c1ccc2c3n(nc2c1)-c1ccc(Cl)cc1CO3,"17.8 µM [falling, partial curve, poor fit]",
CCOC(=O)C1CCN(C(=O)CCn2c(=O)[nH]c3ccccc3c2=O)CC1,"4.47 µM [rising, single point]",
COc1ccc(NC(=O)Nc2cccc3c2O[C@H](CN(C)C(=O)Nc2ccccc2)[C@@H](C)CN([C@H](C)CO)C3=O)cc1,"25.9 µM [rising, single point]",
Cc1ccc(C(=O)N2CCN(Cc3ccc4c(c3)OCO4)CC2)cc1S(=O)(=O)N1CCOCC1,"35.5 µM [falling, single point]",
O=C(Nc1ncnc2c1C(c1ccccc1)c1c(ccc3ccccc13)O2)c1ccccc1 (stereo not given),"18.4 µM [falling, partial curve, poor fit]",
O=C(NCc1ccco1)c1ccc(-c2csnn2)cc1,"35.5 µM [falling, single point]",
CC(Sc1nc(=O)cc(N)n1CCc1ccccc1)C(=O)NCc1ccccc1 (stereo not given),"14.1 µM [falling, partial curve, poor fit]",
O=C(Nc1cc([N+](=O)[O-])ccc1F)c1cccs1,"14.6 µM [falling, partial curve, poor fit]",
O=C(c1cc(-c2cccs2)nc2ccccc12)N1CCN(c2ccccc2O)CC1,"12.6 µM [falling, single point]",
CC(=O)Nc1ccc(S(=O)(=O)NCC(=O)OCc2ccccc2)cc1,"18.4 µM [rising, partial curve]",
O=C(Nc1cccc(S(=O)(=O)NC2=NCCCCC2)c1)c1cc(-c2ccccc2Cl)nc2ccccc12,"23.1 µM [rising, single point]",
COc1cccc(NC(=O)CN2C=NS(=O)(=O)c3ccccc32)c1,"3.16 µM [falling, partial curve]",
Oc1ccccc1CNc1cnc2ccccc2c1,"32.6 µM [falling, single point]",
COc1cccc(/C=C(\C)C(=O)c2c(C)cc(C)[nH]c2=O)c1OC,"35.5 µM [rising, single point]",
Cc1ccc(N(C)C(=O)N2CCN(S(=O)(=O)c3ccc(C)c(C)c3)CC2)cc1,"6.51 µM [falling, single point]",
O=C(Nc1cccc(-c2ccc(N3CCCCC3)nn2)c1)c1ccc(Br)o1,"20.6 µM [falling, single point]",
CCS(=O)(=O)NCCc1sc2nc(-c3ccc(OC)cc3)nn2c1C,"8.91 µM [rising, partial curve, poor fit]",
Cc1ccccc1-c1nsc(SCC(=O)c2ccc(Cl)cc2)n1,"20.6 µM [rising, single point]",
C[C@]12CCC(=O)C=C1CC[C@@H]1[C@@H]2CC[C@@]2(C)[C@H]1CC[C@]2(O)C(=O)CO,"25.1 µM [rising, partial curve, poor fit]",
COc1cccc(C(=O)/C=C/Nc2cccc(O)c2)c1,"18.4 µM [falling, single point]",

# Some values from the list:
# AC50 [1] with CCS(=O)(=O)NCCc1sc2nc(-c3ccc(OC)cc3)nn2c1C is entered as 8.91 µM [rising, partial curve, poor fit]
# AC50 [1] with O=C(Nc1cc([N+](=O)[O-])ccc1F)c1cccs1 is entered as 14.6 µM [falling, partial curve, poor fit]
# AC50 [1] with Cc1ccc(N(C)C(=O)N2CCN(S(=O)(=O)c3ccc(C)c(C)c3)CC2)cc1 is entered as 6.51 µM [falling, single point]
# AC50 [1] with O=C(c1cc(-c2cccs2)nc2ccccc12)N1CCN(c2ccccc2O)CC1 is entered as 12.6 µM [falling, single point]

# Source: PubChem BioAssay AID493014 (National Center for Advancing Translational Sciences (NCATS), 2011)
